Reference: publication PMC12686451
No constants are given. Whether binding was seen depends on the method and setting. In cells and extracts the contact can be indirect. Some binding calls cover weakened binding; strength is not graded here. Tags and fused reporters may be left off the sequences shown.

How the values were obtained:
Assay in all cases: co-IP; GFP-tagged LRR-RP adsorbed on GFP-trap agarose beads, Myc-tagged BAK1 detected by immunoblot; N. benthamiana leaves co-expressing both, treated with water or 1 uM elicitor for 5 min before collecting; membrane proteins extracted in 50 mM Tris-HCl pH 7.4, 150 mM NaCl, 0.25% deoxycholic acid, 1% NP-40, 1 mM EDTA
[1] = target: T1, RLP23, wild type, mEGFP-tagged (Arabidopsis) (UniProt O48849)
T1 sequence: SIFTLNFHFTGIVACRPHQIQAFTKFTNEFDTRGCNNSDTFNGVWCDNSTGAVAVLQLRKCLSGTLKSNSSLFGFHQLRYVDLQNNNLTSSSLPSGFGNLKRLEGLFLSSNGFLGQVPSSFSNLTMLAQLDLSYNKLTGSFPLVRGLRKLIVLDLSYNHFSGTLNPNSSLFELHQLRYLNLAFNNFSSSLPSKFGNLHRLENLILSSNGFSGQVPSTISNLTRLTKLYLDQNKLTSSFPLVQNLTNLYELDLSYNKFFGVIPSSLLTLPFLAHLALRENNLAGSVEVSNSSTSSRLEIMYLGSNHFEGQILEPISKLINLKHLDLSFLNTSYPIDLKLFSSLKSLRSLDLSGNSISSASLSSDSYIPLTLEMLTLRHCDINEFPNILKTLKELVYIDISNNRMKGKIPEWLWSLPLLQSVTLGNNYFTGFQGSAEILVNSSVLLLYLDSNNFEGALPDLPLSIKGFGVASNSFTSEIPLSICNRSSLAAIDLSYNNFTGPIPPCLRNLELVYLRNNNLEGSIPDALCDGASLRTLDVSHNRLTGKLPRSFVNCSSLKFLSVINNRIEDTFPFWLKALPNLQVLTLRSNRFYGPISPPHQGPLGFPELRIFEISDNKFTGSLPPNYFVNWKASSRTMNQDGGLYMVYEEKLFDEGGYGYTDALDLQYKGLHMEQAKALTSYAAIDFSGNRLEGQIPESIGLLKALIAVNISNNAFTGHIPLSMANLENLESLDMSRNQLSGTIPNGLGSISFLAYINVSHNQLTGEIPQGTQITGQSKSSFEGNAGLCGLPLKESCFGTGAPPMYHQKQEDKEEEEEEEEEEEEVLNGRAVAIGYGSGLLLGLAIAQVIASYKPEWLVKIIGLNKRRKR

[2] = target: T2, RLP32, wild type, GFP-tagged (Arabidopsis) (UniProt Q9M9X0)
T2 sequence: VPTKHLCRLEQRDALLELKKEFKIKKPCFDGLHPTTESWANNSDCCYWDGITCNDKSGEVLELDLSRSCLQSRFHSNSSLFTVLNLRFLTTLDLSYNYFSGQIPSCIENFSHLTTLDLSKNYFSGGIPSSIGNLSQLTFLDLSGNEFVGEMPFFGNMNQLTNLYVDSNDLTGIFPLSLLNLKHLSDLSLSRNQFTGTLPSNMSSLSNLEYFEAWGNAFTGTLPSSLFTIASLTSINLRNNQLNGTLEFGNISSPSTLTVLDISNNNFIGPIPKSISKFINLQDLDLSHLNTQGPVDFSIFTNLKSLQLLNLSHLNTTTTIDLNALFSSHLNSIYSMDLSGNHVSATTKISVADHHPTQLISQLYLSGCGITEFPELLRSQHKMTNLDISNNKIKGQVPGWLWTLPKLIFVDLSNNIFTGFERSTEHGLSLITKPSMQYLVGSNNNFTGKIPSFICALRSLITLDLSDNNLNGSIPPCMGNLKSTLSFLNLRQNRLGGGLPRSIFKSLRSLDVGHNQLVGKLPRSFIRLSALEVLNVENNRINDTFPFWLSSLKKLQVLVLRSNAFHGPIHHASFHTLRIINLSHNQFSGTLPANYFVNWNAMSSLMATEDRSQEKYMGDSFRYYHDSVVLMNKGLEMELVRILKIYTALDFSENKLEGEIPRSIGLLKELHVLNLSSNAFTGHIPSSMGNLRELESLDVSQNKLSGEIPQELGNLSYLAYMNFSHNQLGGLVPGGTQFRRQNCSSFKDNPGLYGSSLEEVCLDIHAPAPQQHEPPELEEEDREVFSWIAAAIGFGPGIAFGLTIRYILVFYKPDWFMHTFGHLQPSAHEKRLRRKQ

[3] = target: T3, RLP42, wild type, GFP-tagged (Arabidopsis) (UniProt Q9LJS0)
T3 sequence: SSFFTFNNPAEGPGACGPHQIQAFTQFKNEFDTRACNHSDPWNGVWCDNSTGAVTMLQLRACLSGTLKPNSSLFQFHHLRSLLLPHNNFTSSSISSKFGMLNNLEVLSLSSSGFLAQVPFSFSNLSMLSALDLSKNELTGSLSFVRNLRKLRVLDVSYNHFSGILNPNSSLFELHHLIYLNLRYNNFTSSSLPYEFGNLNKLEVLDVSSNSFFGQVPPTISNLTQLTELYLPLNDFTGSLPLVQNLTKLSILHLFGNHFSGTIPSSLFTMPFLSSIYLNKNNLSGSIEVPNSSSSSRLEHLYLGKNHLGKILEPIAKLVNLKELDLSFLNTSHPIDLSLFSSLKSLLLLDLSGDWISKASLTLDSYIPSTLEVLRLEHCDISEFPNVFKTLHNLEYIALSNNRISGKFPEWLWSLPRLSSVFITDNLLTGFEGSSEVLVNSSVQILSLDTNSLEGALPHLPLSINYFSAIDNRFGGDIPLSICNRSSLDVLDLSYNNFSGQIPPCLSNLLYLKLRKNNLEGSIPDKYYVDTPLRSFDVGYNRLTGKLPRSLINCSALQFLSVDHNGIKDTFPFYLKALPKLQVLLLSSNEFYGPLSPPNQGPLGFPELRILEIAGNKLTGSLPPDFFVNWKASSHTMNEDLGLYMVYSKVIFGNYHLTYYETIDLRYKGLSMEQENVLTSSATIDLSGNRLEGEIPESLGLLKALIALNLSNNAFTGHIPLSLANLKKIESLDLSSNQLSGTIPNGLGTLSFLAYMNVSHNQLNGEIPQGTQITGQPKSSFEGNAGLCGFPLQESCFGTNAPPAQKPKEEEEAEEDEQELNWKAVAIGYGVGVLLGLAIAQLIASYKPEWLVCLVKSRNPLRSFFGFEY

Measured: binding

B1: BRASSINOSTEROID … 1-ASSOCIATED KINASE 1/SOMATIC EMBRYOGENESIS RECEPTOR KINASE 3, Myc-tagged (receptor, UniProt Q94F62 26-615)
chain: NAEGDALSALKNSLADPNKVLQSWDATLVTPCTWFHVTCNSDNSVTRVDLGNANLSGQLVMQLGQLPNLQYLELYSNNITGTIPEQLGNLTELVSLDLYLNNLSGPIPSTLGRLKKLRFLRLNNNSLSGEIPRSLTAVLTLQVLDLSNNPLTGDIPVNGSFSLFTPISFANTKLTPLPASPPPPISPTPPSPAGSNRITGAIAGGVAAGAALLFAVPAIALAWWRRKKPQDHFFDVPAEEDPEVHLGQLKRFSLRELQVASDNFSNKNILGRGGFGKVYKGRLADGTLVAVKRLKEERTQGGELQFQTEVEMISMAVHRNLLRLRGFCMTPTERLLVYPYMANGSVASCLRERPESQPPLDWPKRQRIALGSARGLAYLHDHCDPKIIHRDVKAANILLDEEFEAVVGDFGLAKLMDYKDTHVTTAVRGTIGHIAPEYLSTGKSSEKTDVFGYGVMLLELITGQRAFDLARLANDDDVMLLDWVKGLLKEKKLEALVDVDLQGNYKDEEVEQLIQVALLCTQSSPMERPKMSEVVRMLEGDGLAERWEEWQKEEMFRQDFNYPTHHPAVSGWIIGDSTSQIENEYPSGPR
binds: all assays above
